{
  "sequences": {"note": "Amino acid sequences for entries named in this document (tags omitted). A change or cut given only in a name is not applied to a line headed by its entry.", "UniProt Q9GZZ1": "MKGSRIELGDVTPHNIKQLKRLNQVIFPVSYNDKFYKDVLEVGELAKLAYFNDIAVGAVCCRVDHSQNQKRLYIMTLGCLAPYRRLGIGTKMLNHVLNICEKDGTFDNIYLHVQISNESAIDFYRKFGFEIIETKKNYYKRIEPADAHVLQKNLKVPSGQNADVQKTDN", "UniProt Q86X76": "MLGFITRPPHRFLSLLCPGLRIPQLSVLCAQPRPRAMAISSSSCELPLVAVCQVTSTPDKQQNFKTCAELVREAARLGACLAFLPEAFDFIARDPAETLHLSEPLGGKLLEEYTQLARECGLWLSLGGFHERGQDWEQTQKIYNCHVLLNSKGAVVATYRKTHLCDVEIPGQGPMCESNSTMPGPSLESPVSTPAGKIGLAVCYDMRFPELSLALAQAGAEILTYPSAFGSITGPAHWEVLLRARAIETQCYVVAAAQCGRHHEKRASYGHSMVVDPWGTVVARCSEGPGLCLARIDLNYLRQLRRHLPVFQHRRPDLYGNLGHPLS", "UniProt Q969V5": "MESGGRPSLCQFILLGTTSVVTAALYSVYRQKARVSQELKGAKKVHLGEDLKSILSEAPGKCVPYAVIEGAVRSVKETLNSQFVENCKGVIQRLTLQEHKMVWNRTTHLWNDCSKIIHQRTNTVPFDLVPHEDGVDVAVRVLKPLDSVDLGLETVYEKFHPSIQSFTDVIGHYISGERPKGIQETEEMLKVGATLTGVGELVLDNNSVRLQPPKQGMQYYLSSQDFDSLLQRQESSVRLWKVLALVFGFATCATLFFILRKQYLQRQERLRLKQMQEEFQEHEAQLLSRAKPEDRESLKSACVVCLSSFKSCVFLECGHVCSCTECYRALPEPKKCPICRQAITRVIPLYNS", "UniProt P55786": "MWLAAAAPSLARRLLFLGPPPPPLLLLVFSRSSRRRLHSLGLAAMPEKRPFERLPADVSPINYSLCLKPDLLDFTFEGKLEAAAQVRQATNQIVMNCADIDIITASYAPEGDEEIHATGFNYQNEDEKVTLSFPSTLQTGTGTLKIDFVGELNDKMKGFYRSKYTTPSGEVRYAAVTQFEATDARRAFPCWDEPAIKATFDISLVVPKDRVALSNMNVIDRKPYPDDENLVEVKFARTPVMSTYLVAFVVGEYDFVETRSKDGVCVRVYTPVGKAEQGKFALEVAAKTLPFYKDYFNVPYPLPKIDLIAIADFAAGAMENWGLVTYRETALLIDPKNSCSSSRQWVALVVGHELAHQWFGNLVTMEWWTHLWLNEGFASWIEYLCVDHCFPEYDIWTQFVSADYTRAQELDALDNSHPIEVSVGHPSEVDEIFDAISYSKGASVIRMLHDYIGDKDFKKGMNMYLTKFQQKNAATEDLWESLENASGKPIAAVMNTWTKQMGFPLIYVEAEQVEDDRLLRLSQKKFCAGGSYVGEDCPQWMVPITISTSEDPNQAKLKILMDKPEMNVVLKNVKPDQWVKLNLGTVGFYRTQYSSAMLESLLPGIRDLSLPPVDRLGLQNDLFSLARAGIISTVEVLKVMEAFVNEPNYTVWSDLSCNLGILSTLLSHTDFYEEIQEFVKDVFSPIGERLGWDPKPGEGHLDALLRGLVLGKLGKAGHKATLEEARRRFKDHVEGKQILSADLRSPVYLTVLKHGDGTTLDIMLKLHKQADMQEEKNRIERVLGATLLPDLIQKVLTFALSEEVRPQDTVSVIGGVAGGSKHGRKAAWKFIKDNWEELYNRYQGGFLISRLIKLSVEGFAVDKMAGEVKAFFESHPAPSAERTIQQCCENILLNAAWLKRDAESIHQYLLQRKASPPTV", "UniProt Q15003, whole entry": "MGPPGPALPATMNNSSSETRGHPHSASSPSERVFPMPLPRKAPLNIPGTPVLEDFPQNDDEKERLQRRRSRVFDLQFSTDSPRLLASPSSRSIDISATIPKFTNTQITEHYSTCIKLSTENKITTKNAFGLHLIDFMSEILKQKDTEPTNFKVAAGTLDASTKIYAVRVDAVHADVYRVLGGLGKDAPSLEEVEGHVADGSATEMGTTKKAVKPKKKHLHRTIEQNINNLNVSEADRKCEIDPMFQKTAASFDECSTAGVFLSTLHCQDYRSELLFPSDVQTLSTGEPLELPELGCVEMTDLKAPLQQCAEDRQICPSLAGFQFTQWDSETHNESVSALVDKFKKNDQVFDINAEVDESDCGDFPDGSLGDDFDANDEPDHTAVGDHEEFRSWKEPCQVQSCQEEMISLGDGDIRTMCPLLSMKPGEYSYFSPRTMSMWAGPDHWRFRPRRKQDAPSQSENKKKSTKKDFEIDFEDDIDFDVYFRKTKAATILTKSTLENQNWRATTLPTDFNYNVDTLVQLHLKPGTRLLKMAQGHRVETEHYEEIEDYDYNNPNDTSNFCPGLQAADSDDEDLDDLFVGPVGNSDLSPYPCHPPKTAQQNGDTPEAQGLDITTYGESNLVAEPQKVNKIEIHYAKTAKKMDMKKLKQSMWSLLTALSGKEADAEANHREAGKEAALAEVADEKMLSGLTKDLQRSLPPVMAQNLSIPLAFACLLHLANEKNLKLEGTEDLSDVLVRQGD", "UniProt Q00653": "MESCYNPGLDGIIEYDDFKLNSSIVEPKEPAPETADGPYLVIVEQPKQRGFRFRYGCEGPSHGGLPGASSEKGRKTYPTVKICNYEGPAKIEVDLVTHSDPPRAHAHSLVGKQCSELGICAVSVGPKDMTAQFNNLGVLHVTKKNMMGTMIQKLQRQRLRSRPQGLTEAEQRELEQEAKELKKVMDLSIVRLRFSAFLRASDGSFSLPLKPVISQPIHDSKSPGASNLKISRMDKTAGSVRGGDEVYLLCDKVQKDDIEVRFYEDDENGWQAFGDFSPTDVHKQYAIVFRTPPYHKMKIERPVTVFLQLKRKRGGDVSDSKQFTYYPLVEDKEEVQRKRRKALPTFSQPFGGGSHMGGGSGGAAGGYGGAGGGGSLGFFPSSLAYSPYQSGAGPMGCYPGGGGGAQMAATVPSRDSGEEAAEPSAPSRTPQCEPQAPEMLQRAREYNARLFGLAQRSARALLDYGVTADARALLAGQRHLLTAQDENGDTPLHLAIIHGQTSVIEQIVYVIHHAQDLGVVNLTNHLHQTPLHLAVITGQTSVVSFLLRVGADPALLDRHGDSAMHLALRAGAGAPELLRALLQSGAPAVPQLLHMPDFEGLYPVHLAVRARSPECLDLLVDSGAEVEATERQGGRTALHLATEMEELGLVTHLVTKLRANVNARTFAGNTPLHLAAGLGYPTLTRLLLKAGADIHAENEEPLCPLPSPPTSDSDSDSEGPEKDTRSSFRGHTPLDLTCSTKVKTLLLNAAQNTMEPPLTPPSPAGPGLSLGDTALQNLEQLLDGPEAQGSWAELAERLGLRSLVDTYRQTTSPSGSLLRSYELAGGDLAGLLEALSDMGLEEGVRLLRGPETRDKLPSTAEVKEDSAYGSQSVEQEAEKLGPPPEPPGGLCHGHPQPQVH", "UniProt P30414": "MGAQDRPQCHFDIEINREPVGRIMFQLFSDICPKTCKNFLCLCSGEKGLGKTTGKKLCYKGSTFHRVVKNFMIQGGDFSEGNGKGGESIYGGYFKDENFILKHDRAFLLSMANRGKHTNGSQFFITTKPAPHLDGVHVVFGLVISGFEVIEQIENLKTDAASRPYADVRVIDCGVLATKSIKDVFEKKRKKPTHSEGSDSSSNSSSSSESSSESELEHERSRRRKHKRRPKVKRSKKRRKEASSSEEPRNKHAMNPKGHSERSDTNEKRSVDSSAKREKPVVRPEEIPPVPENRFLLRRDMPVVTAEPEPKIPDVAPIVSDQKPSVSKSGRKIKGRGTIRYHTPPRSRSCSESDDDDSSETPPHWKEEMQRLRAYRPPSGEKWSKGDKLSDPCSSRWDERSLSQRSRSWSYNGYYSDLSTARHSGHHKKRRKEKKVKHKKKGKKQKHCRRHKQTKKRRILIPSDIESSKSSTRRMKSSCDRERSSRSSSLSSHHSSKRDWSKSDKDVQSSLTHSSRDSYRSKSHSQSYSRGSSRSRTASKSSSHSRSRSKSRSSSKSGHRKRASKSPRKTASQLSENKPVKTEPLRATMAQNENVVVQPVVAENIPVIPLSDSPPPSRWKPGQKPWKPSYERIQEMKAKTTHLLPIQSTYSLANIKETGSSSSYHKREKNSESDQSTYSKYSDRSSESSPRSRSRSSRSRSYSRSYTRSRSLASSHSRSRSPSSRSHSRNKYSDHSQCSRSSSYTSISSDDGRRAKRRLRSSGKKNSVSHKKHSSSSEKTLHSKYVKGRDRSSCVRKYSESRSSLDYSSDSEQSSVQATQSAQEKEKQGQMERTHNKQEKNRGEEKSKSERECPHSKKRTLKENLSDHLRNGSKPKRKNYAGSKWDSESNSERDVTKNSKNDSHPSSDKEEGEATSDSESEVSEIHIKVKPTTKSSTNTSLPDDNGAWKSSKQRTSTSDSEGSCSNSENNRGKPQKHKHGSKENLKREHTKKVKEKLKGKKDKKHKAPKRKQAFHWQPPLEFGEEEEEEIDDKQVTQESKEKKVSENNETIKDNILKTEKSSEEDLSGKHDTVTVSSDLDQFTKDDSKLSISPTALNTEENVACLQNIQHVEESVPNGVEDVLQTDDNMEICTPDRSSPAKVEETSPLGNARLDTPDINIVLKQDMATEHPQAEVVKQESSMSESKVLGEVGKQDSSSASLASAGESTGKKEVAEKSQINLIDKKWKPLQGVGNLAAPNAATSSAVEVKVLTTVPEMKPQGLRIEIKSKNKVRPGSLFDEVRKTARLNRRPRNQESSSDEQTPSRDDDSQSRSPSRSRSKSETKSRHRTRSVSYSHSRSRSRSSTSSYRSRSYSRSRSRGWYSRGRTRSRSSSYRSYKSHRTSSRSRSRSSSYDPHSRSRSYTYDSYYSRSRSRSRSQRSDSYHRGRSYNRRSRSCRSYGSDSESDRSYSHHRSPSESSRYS", "UniProt Q96IV0": "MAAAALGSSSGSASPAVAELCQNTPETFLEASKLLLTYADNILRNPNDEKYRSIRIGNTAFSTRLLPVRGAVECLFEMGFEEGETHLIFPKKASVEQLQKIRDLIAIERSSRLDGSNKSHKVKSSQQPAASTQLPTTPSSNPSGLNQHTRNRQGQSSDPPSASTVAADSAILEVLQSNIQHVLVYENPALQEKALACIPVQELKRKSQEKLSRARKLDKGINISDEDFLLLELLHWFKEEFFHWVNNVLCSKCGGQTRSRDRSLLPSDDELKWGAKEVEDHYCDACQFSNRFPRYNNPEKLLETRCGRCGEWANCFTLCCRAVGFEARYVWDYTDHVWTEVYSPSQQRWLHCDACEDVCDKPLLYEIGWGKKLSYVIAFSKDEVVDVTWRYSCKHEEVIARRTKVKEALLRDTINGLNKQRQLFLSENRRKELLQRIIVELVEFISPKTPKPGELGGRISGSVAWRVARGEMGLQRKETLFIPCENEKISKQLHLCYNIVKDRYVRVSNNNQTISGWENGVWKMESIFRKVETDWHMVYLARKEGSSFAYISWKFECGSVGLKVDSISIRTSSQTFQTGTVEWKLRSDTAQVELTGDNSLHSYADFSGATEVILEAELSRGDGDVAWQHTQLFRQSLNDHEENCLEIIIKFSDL", "UniProt O95169, whole entry": "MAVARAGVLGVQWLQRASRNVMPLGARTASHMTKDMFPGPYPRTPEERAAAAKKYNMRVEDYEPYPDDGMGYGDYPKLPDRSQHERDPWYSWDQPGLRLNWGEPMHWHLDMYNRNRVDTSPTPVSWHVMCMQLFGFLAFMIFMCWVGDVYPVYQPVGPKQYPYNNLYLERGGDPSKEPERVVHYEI"},
  "source": "the supplement of paper PMC7666118",
  "note": "The list shows a part of the results.",
  "data": [
    {"compound": "COc1ccc(Cn2ccc3ccc(C(=O)NO)cc32)cc1", "experiment": "dose-dependent thermal stabilisation call (2D-TPP, DLPTP, 10% FDR) (binary (1 = stabilised)); higher = stabilised by the compound", "conditions": "system: HL-60 intact cells; concentration range 0.04-10 µM", "values": [
      {"target": "NAT13 (UniProt Q9GZZ1)", "dose-dependent thermal stabilisation call": "inactive: 0"},
      {"target": "NFATC3 (UniProt Q12968)", "dose-dependent thermal stabilisation call": "inactive: 0"},
      {"target": "NIT1 (UniProt Q86X76)", "dose-dependent thermal stabilisation call": "inactive: 0"},
      {"target": "MUL1 (UniProt Q969V5)", "dose-dependent thermal stabilisation call": "inactive: 0"},
      {"target": "NPEPPS (UniProt P55786)", "dose-dependent thermal stabilisation call": "active: 1"},
      {"target": "NCAPH (UniProt Q15003)", "dose-dependent thermal stabilisation call": "inactive: 0"},
      {"target": "NFKB2 (UniProt Q00653)", "dose-dependent thermal stabilisation call": "inactive: 0"},
      {"target": "NKTR (UniProt P30414)", "dose-dependent thermal stabilisation call": "inactive: 0"},
      {"target": "NGLY1 (UniProt Q96IV0)", "dose-dependent thermal stabilisation call": "inactive: 0"},
      {"target": "NDUFB8 (UniProt O95169)", "dose-dependent thermal stabilisation call": "inactive: 0"}
    ]}
  ]
}
